For this experiment, the target named is T1, Xenopus Unc5B (Xenopus, UniProt Q8JGT4 31-943).
T1 construct: Netrin receptor Unc5B, Xenopus; Constructs are in Text S1; source: HEK293T, transfected, on cells
Description: cell surface binding of an alkaline phosphatase fusion protein, chromogenic stain; transfected HEK293T cells incubated 1 h at RT with concentrated AP-FLRT3ΔTM conditioned medium (3 to 8 U/ml AP activity) in DMEM, 10% FCS, 50 mM HEPES; washed with PBS; bound AP stained with Fast Red.

Amino acid sequences for entries named in this document (tags omitted). Residues count along the entry.
UniProt Q8JGT4, residues 31-943: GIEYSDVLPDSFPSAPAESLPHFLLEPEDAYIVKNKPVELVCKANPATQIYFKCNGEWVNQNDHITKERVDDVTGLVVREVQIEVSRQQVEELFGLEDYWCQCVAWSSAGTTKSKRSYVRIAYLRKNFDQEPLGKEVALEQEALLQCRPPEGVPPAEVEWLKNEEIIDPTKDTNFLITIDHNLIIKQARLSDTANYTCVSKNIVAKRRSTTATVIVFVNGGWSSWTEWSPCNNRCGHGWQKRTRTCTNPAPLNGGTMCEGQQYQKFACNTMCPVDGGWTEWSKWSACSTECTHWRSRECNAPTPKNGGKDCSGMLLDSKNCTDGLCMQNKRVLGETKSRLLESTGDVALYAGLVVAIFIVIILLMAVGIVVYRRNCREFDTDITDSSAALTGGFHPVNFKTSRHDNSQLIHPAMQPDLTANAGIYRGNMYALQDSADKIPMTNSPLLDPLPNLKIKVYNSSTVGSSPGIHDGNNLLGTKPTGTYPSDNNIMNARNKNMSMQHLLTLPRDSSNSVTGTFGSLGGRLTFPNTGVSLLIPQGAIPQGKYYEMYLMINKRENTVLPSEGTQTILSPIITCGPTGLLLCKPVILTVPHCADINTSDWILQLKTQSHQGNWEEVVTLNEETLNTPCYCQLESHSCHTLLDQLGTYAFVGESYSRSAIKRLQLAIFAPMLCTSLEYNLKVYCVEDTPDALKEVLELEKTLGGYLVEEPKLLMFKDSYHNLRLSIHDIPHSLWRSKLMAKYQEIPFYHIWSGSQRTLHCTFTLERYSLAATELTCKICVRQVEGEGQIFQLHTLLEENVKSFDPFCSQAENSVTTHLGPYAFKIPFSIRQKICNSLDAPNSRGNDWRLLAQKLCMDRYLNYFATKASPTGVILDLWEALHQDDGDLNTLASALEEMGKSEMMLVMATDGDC

In article PMC2683942, “Unc5B Interacts with FLRT3 and Rnd1 to Modulate Cell Adhesion in Xenopus Embryos” (PLoS ONE, 2009) one finds binding data, which are given here for one molecule.

No constants are given. Whether binding was seen depends on the method and setting. Some entries that bind do so weakly or less than the wild type. Tags and fused reporters may be left off the sequences shown.

B1: soluble alkaline phosphatase-FLRT3 ectodomain fusion protein (AP-FLRT3ΔTM) (domain or fragment, Xenopus, UniProt Q70AK3 29-527, looked up)
chain: KPCPSVCRCDAGFIYCNDRDLTSIPSGIPDDATTLYLQNNQINNAGIPSDLKGLDKVERIYLYRNSLDEFPINLPKNVKELHLQENNIRTITYDALLQIPFIEELHLDDNSVSAVSIEDGAFRDNIFLRLLFLSRNHLSTIPWGLPKTIEELRLDDNRISTISEISLQDLTNLKRLVLDGNLLNNNGLGERVFMNLINLTELSLVRNSLTSPPANLPGTSLRKLYLQENHMNYVPPNSFADLTQLYRLDMSNNNLTALPQGIFDDLDNLTQLFLRNNPWYCGCKMKWVRDWLQSLPSKVNVRGLMCQAPERVRGMTIKDLNKELFDCKDRIGSNTIHVTTTMLNSLLPAQGQWPVPVTKQPEIRPPDINKIFRTTPIPVKKIITIQVKSITTETIYISWKVALPMTALRLSWQLGHSPVFGSITETIVTGDRAEYLLTALEPESPYRICMVPMETGNIYLSDETPVCIETETAPLKMYNPTTTLNREQEKEPYKNSSLP
notes: FLRT3, Xenopus, ectodomain (ΔTM); also called AP-tagged FLRT3ΔTM; source: conditioned medium, concentrated
In the case of B1, the binding entry is “binds”.
